Measurements from patent publication EP0441832B1, “COMPOSITION AND TREATMENT WITH BIOLOGICALLY ACTIVE PEPTIDES AND CERTAIN ANIONS” (THE CHILDREN'S HOSPITAL OF PHILADELPHIA, priority 1988, dated 1990).
Part of at least one peptide drawing is inferred or uncertain, most often the ends. Ends that are not written are not given here.

Tested on: PSEUDOMONAS AERUGINOSA
Type: cell-based
Conditions: Panel A: Absence of NaF; approx. 1,000 bacteria in about 200 ul trypticase soy broth
Experimental: Approximately 1,000 bacteria were seeded into about 200 ul of trypticase soy broth. Either magainin 2 carboxy terminal amide, PGLa, or ALSKALSK ALSKALSKALSKALSK (Z-44) were added in increasing concentrations in the absence (Panel A) or presence (Panel B) of 50 mM NaF.

| Substance | MINIMAL INHIBITORY CONCENTRATION |
| --- | --- |
| ALSKALSKALSKALSKALSKALSK [Z-44, ALSKALSK ALSKALSKALSKALSK] | Z-44 30-60 ug/ml |
| GMASKAGAIAGKIAKVALKAL-NH2 [PGLa] | PGLa >500 ug/ml |
